From patent publication US12559487B2, “Crosslinked optically active secondary amine derivative” (Sumitomo Pharma Co., Ltd., priority 2019, dated 2026)
At least one structure is not confirmed: it was looked up by name or label, or the drawing left a doubt.

Tested on: MV4; 11 cells
Test: Test 1: Test for evaluating the inhibition of cell proliferation
Assay type: cell-based
Conditions: summary in words
Experimental: MV4; 11 cells were obtained from American Type Culture Collection (ATCC). The cells were cultured at 37° C. in the presence of 5% CO2 in RPMI 1640 medium containing 10% fetal bovine serum and 1% penicillin/streptomycin.
The cells were plated to a 96-well plate in 2000 cells/well, each test compound was added thereto to adjust the final concentration of DMSO to 0.1% of DMSO, and the cells were cultured for 7 days. After the cultivation, the cell viability was calculated with PrestoBlue™ Cell Viability Reagent (Invitrogen, A13261).

Compound: CC(C)N(C)C(=O)c1cc(F)ccc1-n1cc(C2CCCN(C(=O)[C@H]3N[C@@H]4CC[C@H]3C4)CC2)c2ccncc21 (stereo partly drawn) [Example 10, 2-(3-{1-[(1R,3S,4S)-2-azabicyclo[2.2.1]heptane-3-carbonyl]azepan-4-yl}-1H-pyrrolo[2,3-c]pyridin-1-yl)-5-fluoro-N-methyl-N-(propan-2-yl)benzamide]
- cell proliferation inhibition activity: potent cell proliferation inhibition activity
